# Measured values: PubChem BioAssay AID2685 (National Center for Advancing Translational Sciences (NCATS), 2010)
# Some of the results follow. The main result of the screen is listed elsewhere. These columns were measured beside it and carry no call. The list favours compounds with an active or inconclusive main result. Potencies come from curve fits of mixed quality, noted in brackets.
# Assay: qHTS Assay for Lipid Storage Modulators in Drosophila S3 Cells;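 as to cell number change: cells counted by Cell Tracker Red CMTPX staining in the red channel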
# Conditions: BODIPY lipid droplet fluorescence, 18-24 h; for cell number change: measured here: cell count max response, cells fed with added oleic acid
# In short: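 Drosophila S3 cells loaded with oleic acid (400 uM, as added) and compounds at several concentrations; lipid droplets imaged by 488-nm laser-scanning cytometry, 500–530 nm intensity and object ratio to cell channel. Percent activity normalized to 20 uM Triacsin C.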
# [1] = measured here: cell number channel AC50, cells fed with added oleic acid
# [2] = measured here: lipid fluorescence (Fed channel) AC50, cells fed with added oleic acid
Structure (SMILES),cell number change,AC50 [1],AC50 [2]
COCCCn1c(SCc2cccc(C(F)(F)F)c2)nc2cc(OC)c(OC)cc2c1=N,-85.9%,"18.4 µM [falling, partial curve]","10.3 µM [falling, partial curve]"
CCc1cc2cccc(C)c2nc1SCC(=O)Nc1nonc1C,16.9%,"0.0259 µM [rising, full curve, poor fit]",
CCOc1cc(N2CCOCC2)c(OCC)cc1NC(=O)c1ccc(C)cc1,-24.2%,"1.16 µM [falling, full curve, poor fit]","5.8 µM [falling, full curve, poor fit]"
COc1ccc(-c2nnc(NC(=O)c3ccccc3[N+](=O)[O-])s2)c(OC)c1,15%,,
COc1ccccc1NC(=S)NCCc1ccccc1,-28.1%,,
O=S(=O)(c1ccc(S(=O)(=O)N2CCN(Cc3ccccc3)CC2)cc1)N1CCOCC1,-38.6%,"29.1 µM [falling, single point]","29.1 µM [falling, single point]"
Cc1ccc(Nc2nc(-c3c(C)nc4ncccn34)cs2)cc1,19.3%,,"16.4 µM [rising, partial curve]"
COc1ccc(N(CC(=O)NCCc2ccc(OC)c(OC)c2)S(=O)(=O)c2ccc(OC)c(OC)c2)cc1,338%,"29.1 µM [rising, single point]","29.1 µM [falling, partial curve]"
COc1ccc(CC(=O)N2CCc3ccccc3C2)cc1,22.5%,,"29.1 µM [rising, single point]"
COc1ccc(CCNC(=O)c2ccc3ccccc3n2)cc1,24.8%,,"1.16 µM [rising, full curve]"
CN1CCN(NC(=O)CN(C)S(=O)(=O)c2cc(Cl)ccc2Cl)CC1,-19.3%,,"5.17 µM [falling, partial curve]"
COc1ccc(F)cc1S(=O)(=O)Nc1cc2c3c(c1)CCN3C(=O)CC2,,,"2.59 µM [falling, partial curve, poor fit]"
O=C1CC(SCCc2nc3ccccc3[nH]2)C(=O)N1c1ccc(Cl)cc1 (stereo unspecified),132%,,
CCC(=O)c1ccc(OCC(=O)OCC(=O)NC2CCCCCC2)cc1,-33.3%,"0.0366 µM [falling, full curve]",
O=C(OCC(=O)N1CCCCCC1)c1cccs1,-119%,,"29.1 µM [falling, single point]"
Cc1cc(=O)n(CC=C(Cl)Cl)c2ccccc12,,,"6.51 µM [rising, single point]"
O=C(Nc1nccs1)c1ccc[nH]c1=O,2.64%,,
CCn1ccnc1CNC(=O)CC1C(=O)NCCN1Cc1ccc(OC)cc1OC (stereo unspecified),5.9%,,"20.6 µM [rising, partial curve, poor fit]"
CCOCCCN(C(=O)Cn1nnc(-c2ccc(OC)c(OC)c2)n1)C(C(=O)NCC1CCCO1)c1ccc(F)cc1 (stereo unspecified),19.7%,,"22.4 µM [falling, single point]"
CCOc1cc(N2CCOCC2)c(OCC)cc1NC(=O)COc1cccc2cccnc12,-24.1%,,"29.1 µM [falling, single point]"
Cc1c(Cl)cccc1NC(=O)Nc1ccc(C(N)=O)cc1,41.7%,"29.1 µM [rising, single point]","29.1 µM [rising, single point]"

# Single values from above:
# AC50 [2] with O=C(OCC(=O)N1CCCCCC1)c1cccs1 reads 29.1 µM [falling, single point]
# cell number change with O=C1CC(SCCc2nc3ccccc3[nH]2)C(=O)N1c1ccc(Cl)cc1 (stereo unspecified) reads 132%
# AC50 [2] with COCCCn1c(SCc2cccc(C(F)(F)F)c2)nc2cc(OC)c(OC)cc2c1=N reads 10.3 µM [falling, partial curve]

# (next part)

Structure (SMILES),cell number change,AC50 [1],AC50 [2]
O/N=C/c1ccnc(SCc2ccc(Cl)cc2)n1,-47.1%,"13 µM [falling, partial curve, poor fit]","14.6 µM [falling, partial curve]"
CCC(Sc1nc2n[nH]c(C)c2c(=N)n1-c1cccc(Cl)c1)C(=O)NCCOC (stereo unspecified),-19.1%,,"29.1 µM [falling, single point]"
CCOc1ccccc1NC(=O)COC(=O)CSc1ccc(Cl)cc1,53.9%,"20.6 µM [rising, single point]","0.206 µM [rising, full curve, poor fit]"
Cc1c(Cl)cccc1NC(=S)N(Cc1ccccc1)Cc1cccnc1,100%,"16.4 µM [rising, partial curve, poor fit]","6.51 µM [rising, partial curve, poor fit]"
COc1ccc2c(Cl)c(C(=O)NN3CCN(C)CC3)sc2c1,-23.1%,"0.164 µM [falling, full curve, poor fit]","0.164 µM [falling, full curve, poor fit]"
CCOC(=O)c1cnc2cc(Cl)c(OC)cc2c1NCC1CCCO1 (stereo unspecified),-14.4%,,"4.61 µM [falling, full curve]"
O=C(Nc1cccc([N+](=O)[O-])c1)N1CCCCCC1,3.18%,,"0.651 µM [rising, single point]"
Cc1cccc(NC(=O)CCN2C(=O)C3C4C=CC(C4)C3C2=O)c1 (stereo unspecified),17.3%,,"29.1 µM [falling, single point]"
Cc1c(Cl)ccc2c(C(=O)NCCN3CCCCC3)cc(-c3ccccn3)nc12,5.23%,,
CCOC(=O)N1CCN(C(=O)C2CCC(=O)N(Cc3ccc(Cl)cc3)C2)CC1 (stereo unspecified),10.5%,,"29.1 µM [rising, single point]"
Cc1cccc(C)c1OCCN1CCCC1,4.42%,,
COc1cccc(-n2nnc3c(=O)n(CC(=O)N4CCCCC4)cnc32)c1,13.2%,,"2.06 µM [rising, single point]"
O=C1C2C3C=CC(C3)C2C(=O)N1/N=C/c1ccc(-c2ccccc2[N+](=O)[O-])o1 (stereo unspecified),,"0.58 µM [rising, single point]",
COc1ccc2c(c1OC)C(=O)OC2CC(=O)c1ccc(O)cc1 (stereo unspecified),,,"0.0058 µM [rising, full curve, poor fit]"
CC(=O)c1cc(-c2ccccc2)n(CC(=O)NC2CCCCC2)c1C,4.21%,,"6.51 µM [rising, single point]"
N#CC(c1ccc(Cl)cc1)(c1ncc(C(F)(F)F)cc1Cl)N1CCOCC1 (stereo unspecified),30.7%,,"23.1 µM [rising, single point]"
CCCCN(CC)C(=O)c1n[nH]c(=O)c2ccccc12,,,"0.0651 µM [falling, full curve]"
CCCCCC(=O)Nc1ccc(C(=O)COC(=O)CN2C(=O)NC3(CCCC3)C2=O)cc1,-10.3%,,"6.51 µM [falling, single point]"
CC1=C(C(=O)N(C)C)C(c2ccc(C)s2)NC(=S)N1 (stereo unspecified),4.98%,,"3.26 µM [rising, partial curve, poor fit]"
COc1cc2c(cc1NC(=O)CSc1nnc(COc3ccc(Cl)cc3)n1C)oc1ccccc12,-4.9%,,"0.0517 µM [rising, full curve, poor fit]"
CS(=O)(=O)N(Cc1ccccc1)c1ccccc1C(=O)Nc1ccccc1C(=O)NCc1ccco1,120%,"29.1 µM [rising, single point]",

Structure (SMILES),cell number change,AC50 [1],AC50 [2]
Cc1ccc(-c2nc3ccccc3nc2-c2ccccc2)cc1,-16%,,
CCN(CC)CCn1c(=S)[nH]c2cc3c(cc2c1=O)OCO3,-11.2%,"0.651 µM [falling, full curve, poor fit]","6.51 µM [falling, single point]"
Cc1nc2c(c(=O)n1Cc1ccccc1Cl)c1nc3ccccc3nc1n2Cc1ccco1,-24.4%,,
COC(=O)[C@@H]1C[C@@]2(O)[C@@H](O)[C@@H](O)[C@@H](O)C[C@H]2N1Cc1ccc(C(F)(F)F)cc1,-8.41%,,"6.51 µM [falling, single point]"
CC(C)c1ccc(NC(=O)c2cc(S(=O)(=O)NCC3COc4ccccc4O3)ccc2F)cc1 (stereo unspecified),19.5%,,
CCOc1ccccc1N(CC)C(=O)c1nn(C)c2c1CSc1ccccc1-2,-7.46%,,
OC(CCN1CCCC1)(c1ccccc1)C1CCCCC1 (stereo unspecified),21.5%,,"0.00517 µM [rising, full curve, poor fit]"
Nc1nnc(-c2cn(-c3ccccc3)nc2-c2ccc(Cl)cc2)o1,-22%,,"16.4 µM [falling, single point]"
CCCNC(=O)Nc1ccc(F)c(Cl)c1,-92%,,
O=C(CSc1n[nH]c(-c2ccccc2Br)n1)NC(=O)NCc1ccco1,8.93%,,"0.291 µM [falling, full curve]"
O=S(=O)(NC1c2cccc3cccc(c23)C1N1CCN(CCO)CC1)c1ccccc1 (stereo unspecified),-15.7%,,"6.51 µM [falling, single point]"
Cc1ccccc1C(=O)Nc1ccccc1-n1cccc1,3.52%,,
CCOn1c(=O)c(-c2ccc(Br)cc2)[n+]([O-])c2ccccc21,17.7%,,"32.6 µM [rising, single point]"
COC(=O)c1ccc(-c2noc(CN(C)CCC3CCCCO3)n2)cc1 (stereo unspecified),-23.7%,"4.11 µM [falling, full curve, poor fit]","29.1 µM [falling, single point]"
CC(C)[C@H](NC(=O)c1ccccc1)C(=O)NCCc1ccccc1,0.435%,,
COc1cccc(Oc2nc(-c3ccncc3)nc3ccccc23)c1,-35.3%,,
CC(=O)Nc1ccccc1NC(=O)c1cccc2ccccc12,7.33%,,"2.06 µM [rising, partial curve, poor fit]"
COc1ccc(C2=NOC(C(=O)NCc3ccccn3)C2)cc1OC (stereo unspecified),73%,"25.9 µM [rising, single point]",
COC(=O)C1=C(C)N(Cc2ccc(C)cc2)C(=O)/C1=C\c1ccc(O)c(OC)c1,-20%,,"0.00651 µM [falling, full curve, poor fit]"
COc1ccc(NC(=O)Cc2csc(NC(=O)Nc3ccccc3OC)n2)c(OC)c1,,"1.64 µM [rising, partial curve]","0.82 µM [rising, full curve]"
